Patent US10710962B2, “Zwitterionic reagents” (Siemens Healthcare Diagnostics Inc., priority 2010, dated 2020)

What was measured:
[1] = Fractional non-specific binding (fNSB) of chemiluminescent conjugates to PMP solid phase
[2] = Fractional non-specific binding (fNSB) of chemiluminescent conjugates to M270 solid phase
[3] = Fractional non-specific binding (fNSB) of chemiluminescent conjugates to M280 solid phase
BGG-NSP-DMAE = experiment: Zwitterion label incorporation into acridinium ester labeled BGG, measured by mass spectroscopy; set-up: species or system bovine
[4] = NSP-DMAE-AVD labeled with 10 equivalents of the zwitterion compound
[5] = NSP-DMAE-AVD labeled with 20 equivalents of the zwitterion compound
[6] = conjugate Z3-PFP Modified (25 equivalents)
[7] = conjugate Z3-PFP Modified (25 equivalents), listed as NSP-DMAE-avidin

Compound	fNSB [1, 4]	fNSB ([1]; NSP-DMAE-AVD labeled with 10 equivalents of the zwitterion compound, listed as ZPB-PFP)	fNSB [1, 5]	fNSB [2, 4]	fNSB [2, 5]	fNSB [3, 4]	fNSB [3, 5]	# of Zwitterion-Containing Compounds Incorporated by Conjugate (BGG-NSP-DMAE; input 10 equivalents)	# of Zwitterion-Containing Compounds Incorporated by Conjugate (BGG-NSP-DMAE; input 20 equivalents)	fNSB ([1]; NSP-DMAE-AVD labeled with 10 equivalents of the zwitterion compound, listed as Z2-PFP)	fNSB ([1]; NSP-DMAE-AVD labeled with 20 equivalents of the zwitterion compound, listed as Z4-PFP)	fNSB ([1]; NSP-DMAE-AVD, 0 zwitterionic labels in input (control), listed as NSP-DMAE-avidin)	fNSB ([1]; conjugate Unmodified)	fNSB [1, 6]	fNSB [1, 7]	fNSB ([2]; conjugate Unmodified)	fNSB [2, 6]	fNSB [2, 7]
CCCOP(=O)([O-])OCC[N+](C)(C)CCCC(=O)Oc1c(F)c(F)c(F)c(F)c1F [Compound 4c]	5.7 × 10^−4	5.7×10^−4	3.4 × 10^−4	4.6 × 10^−4	1.6 × 10^−4	1.0 × 10^−4	7.7 × 10^−5	6	8.4	–	–	–	–	–	–	–	–	–
C[N+](C)(CCCC(=O)Oc1c(F)c(F)c(F)c(F)c1F)CCS(=O)(=O)[O-] [Compound 1d]	4.1 × 10^−4	–	–	2.3 × 10^−4	–	8.4 × 10^−5	–	5.3	–	4.1×10^−4	–	–	–	–	–	–	–	–
C[N+](C)(CCCCS(=O)(=O)[O-])CCCC(=O)Oc1c(F)c(F)c(F)c(F)c1F [Compound 3c]	–	–	5.0 × 10^−4	–	2.5 × 10^−4	–	8.7 × 10^−5	3.7	–	–	5.0×10^−4	–	–	–	–	–	–	–
C[N+](C)(CCCC(=O)Oc1c(F)c(F)c(F)c(F)c1F)CCCS(=O)(=O)[O-] [Compound 2c]	4.8 × 10^−4	–	2.6 × 10^−4	3.2 × 10^−4	1.2 × 10^−4	8.8 × 10^−5	6.5 × 10^−5	9	13	–	–	–	–	–	–	–	–	–
NSP-DMAE-AVD: egg white avidin labeled with acridinium ester NSP-DMAE; tested unmodified and further labeled with zwitterion compounds	–	–	–	–	–	–	–	–	–	–	–	1.3×10^−3	1.3 × 10^−3	1.7 × 10^−4	1.7×10^−4	6.3 × 10^−2	5.2 × 10^−4	5.2×10^−4
